Experimental data taken from US20250057832A1, “USE OF A CLASS OF 1,4-DIHYDRO-NAPHTHYRIDINE DERIVATIVES IN TREATMENT OF TUMORS” (NEURODAWN PHARMACEUTICAL CO., LTD., priority 2021, published 2025).
“Also recorded” adds a separate entry of the source. At least one compound was matched to its structure with a doubt left.

Legend:
[1] = tested on: U87MG-Luc glioblastoma cell in situ transplantation tumor; assay: S2 combined with TMZ in U87MG-Luc glioblastoma in situ transplantation tumor model in nude mice (Example 5); conditions: TMZ 3 mg/kg IP alone
[2] = tested on: T98G subcutaneous transplantation tumor; assay: Human brain glioma T98G subcutaneous model in NOD SCID mice (Example 6); format: in vivo, NOD SCID mouse; conditions: TMZ 15 mg/kg PO
Method: Human brain glioma T98G cells were cultured in vitro. The cells were cultured in EMEM medium added with 10% fetal calf serum, 100 U/mL penicillin and 100 µg/mL streptomycin, in a 37° C. 5% CO2 incubator. After the number of cells reached the required number, the cells were collected. 0.2 mL (10×10^6) of T98G tumor cells (PBS:Matrigel=1:1) were subcutaneously inoculated into the right back of each mouse. The mice were grouped and administered when the average tumor volume reached approximately 147 mm^3. […]
Tumor diameters were measured with vernier calipers twice a week, and tumors were weighed and photographed after the experiment.
1.5 Data Statistics The tumor volume was calculated as follows: V=0.5a×b^2, where a and b represent the long and short diameters of the tumor respectively.
The tumor inhibitory effect was evaluated by TGI (%) or relative tumor proliferation rate T/C (%).
The tumor inhibitory effect was calculated as TGI (%): TGI %=[1-(average tumor volume at the end of administration in a certain treatment group−average tumor volume at the beginning of administration in the treatment group)/(average tumor volume at the end of administration in the vehicle control group−average tumor volume in the vehicle control group at the beginning of treatment)]×100. […]

Cn1nnc2c(C(N)=O)ncn2c1=O [TMZ, Temozolomide, reference compound]
Growth of U87MG in situ tumor in the brain vs vehicle (FIG. 9) [1]: significantly inhibit the growth
Tumor volume growth vs vehicle (FIG. 12A-C) [2]: no inhibitory effect on tumor volume growth; also recorded: could not inhibit the growth of T98 glioma
Tumor weight at end of experiment vs control (FIG. 12D) [2]: no significant difference in tumor weight; also recorded: could not reduce the volume and weight of solid tumors
